Experimental data as given in PMC9504280.
Results are given in words; binding and its absence hold for the method and conditions named. Binding seen in cells or lysates may run through a third protein. Some binding calls cover weakened binding; strength is not graded here.

By UniProt entry, the sequences of proteins in these tests, tags left out. Residues count along the entry.
UniProt P38647, residues 47-679: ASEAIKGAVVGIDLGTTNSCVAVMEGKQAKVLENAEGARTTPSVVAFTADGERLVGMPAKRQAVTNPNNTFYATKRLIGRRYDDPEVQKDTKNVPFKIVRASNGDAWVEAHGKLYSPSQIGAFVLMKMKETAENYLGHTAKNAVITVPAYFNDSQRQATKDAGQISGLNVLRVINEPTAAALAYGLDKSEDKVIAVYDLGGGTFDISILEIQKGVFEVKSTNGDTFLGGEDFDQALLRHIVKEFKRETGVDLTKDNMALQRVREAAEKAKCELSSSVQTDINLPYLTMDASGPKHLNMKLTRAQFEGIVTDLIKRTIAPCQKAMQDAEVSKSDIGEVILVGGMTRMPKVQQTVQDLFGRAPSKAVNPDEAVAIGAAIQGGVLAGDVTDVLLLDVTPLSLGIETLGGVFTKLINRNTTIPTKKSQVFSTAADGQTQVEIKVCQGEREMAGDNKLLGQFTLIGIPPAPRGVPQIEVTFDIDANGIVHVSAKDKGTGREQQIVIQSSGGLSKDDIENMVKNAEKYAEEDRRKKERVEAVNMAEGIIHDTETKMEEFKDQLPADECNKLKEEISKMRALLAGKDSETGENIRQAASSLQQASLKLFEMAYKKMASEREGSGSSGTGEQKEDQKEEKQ
UniProt P11881: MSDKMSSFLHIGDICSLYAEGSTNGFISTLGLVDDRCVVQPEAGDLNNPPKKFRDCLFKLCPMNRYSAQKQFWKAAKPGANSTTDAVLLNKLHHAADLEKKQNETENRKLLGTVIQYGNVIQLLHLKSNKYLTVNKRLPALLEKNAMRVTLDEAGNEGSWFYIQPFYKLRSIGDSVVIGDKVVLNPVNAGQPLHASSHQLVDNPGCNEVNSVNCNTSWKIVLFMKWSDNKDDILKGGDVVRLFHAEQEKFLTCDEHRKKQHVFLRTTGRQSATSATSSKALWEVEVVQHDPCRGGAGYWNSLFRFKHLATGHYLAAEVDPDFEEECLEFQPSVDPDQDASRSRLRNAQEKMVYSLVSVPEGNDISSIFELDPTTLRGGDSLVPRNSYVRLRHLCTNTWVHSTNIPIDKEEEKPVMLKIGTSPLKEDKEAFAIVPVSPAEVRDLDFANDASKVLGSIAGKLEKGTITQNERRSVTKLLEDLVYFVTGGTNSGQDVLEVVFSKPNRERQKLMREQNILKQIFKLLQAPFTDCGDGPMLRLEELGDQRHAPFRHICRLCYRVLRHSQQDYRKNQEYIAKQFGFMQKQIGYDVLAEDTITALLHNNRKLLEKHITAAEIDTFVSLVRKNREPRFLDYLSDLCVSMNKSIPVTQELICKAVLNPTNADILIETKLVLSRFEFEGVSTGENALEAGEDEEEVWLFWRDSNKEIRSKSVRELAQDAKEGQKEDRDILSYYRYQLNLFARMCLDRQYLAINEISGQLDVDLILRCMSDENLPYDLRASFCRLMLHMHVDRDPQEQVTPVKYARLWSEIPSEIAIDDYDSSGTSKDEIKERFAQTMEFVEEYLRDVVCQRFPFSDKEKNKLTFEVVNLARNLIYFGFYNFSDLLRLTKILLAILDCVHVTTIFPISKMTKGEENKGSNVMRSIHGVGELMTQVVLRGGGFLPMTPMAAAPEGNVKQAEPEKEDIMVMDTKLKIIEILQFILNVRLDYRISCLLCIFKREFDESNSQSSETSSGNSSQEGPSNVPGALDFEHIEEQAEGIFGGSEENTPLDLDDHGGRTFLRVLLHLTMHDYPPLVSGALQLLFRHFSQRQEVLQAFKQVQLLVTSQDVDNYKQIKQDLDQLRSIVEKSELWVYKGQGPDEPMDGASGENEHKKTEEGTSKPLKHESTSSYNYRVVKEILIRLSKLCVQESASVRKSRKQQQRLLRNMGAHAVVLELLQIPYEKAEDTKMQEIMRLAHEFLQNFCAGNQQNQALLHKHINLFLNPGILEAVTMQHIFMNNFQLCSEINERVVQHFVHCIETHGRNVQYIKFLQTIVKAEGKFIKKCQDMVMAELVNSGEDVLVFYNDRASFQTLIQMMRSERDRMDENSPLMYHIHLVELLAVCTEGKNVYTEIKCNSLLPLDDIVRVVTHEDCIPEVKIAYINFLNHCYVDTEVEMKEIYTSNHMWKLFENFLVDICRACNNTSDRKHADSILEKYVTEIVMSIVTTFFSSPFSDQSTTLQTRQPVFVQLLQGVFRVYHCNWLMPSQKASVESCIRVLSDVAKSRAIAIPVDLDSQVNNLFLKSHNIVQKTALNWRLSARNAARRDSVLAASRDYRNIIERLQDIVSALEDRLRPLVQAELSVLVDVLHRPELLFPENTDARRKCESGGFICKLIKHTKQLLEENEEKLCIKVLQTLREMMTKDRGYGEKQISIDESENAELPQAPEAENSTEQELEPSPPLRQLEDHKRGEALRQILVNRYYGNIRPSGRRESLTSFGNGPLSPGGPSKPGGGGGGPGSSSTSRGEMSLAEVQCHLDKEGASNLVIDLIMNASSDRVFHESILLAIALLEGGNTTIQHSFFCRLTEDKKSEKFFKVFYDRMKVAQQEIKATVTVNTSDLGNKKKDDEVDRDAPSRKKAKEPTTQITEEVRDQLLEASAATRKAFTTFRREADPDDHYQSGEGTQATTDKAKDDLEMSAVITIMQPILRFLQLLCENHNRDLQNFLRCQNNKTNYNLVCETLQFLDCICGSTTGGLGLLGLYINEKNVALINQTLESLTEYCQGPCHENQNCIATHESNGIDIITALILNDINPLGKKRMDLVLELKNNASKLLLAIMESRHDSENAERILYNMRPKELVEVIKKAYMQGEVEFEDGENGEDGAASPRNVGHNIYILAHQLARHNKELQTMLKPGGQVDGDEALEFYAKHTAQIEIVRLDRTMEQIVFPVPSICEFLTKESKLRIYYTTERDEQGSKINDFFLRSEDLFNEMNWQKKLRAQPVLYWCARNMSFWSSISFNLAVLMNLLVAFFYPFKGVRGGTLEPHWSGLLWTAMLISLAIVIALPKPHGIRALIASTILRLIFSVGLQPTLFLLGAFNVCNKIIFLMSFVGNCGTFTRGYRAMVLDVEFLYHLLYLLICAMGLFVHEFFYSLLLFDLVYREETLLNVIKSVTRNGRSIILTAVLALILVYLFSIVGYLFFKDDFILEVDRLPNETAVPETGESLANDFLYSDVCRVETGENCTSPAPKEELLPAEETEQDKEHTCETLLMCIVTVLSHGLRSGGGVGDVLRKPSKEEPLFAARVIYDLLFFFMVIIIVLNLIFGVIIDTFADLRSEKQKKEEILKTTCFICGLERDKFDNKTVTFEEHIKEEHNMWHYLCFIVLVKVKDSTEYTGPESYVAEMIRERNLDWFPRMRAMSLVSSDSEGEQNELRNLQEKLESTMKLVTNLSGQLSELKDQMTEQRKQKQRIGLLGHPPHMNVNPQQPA

Key:
[1] = target: glucose-regulated protein 75 (GRP75) (mouse (endogenous in 3T3-L1)) (UniProt P38647); test: co-IP; reciprocal: anti-GRP75 antibody on 1 mg total lysate of 3T3-L1 cells before (day 0) and 7 days after adipogenic differentiation, 4°C overnight, Mag Sepharose Xtra beads, washed with TBST (50 mM Tris-HCl, 150 mM NaCl, 0.1% Tween-20, pH 7.4), eluted with 2% SDS; Western blot for IP3R1 and …
[2] = target: inositol 1,4,5-triphosphate receptor 1 (IP3R1) (mouse (endogenous in 3T3-L1)) (UniProt P11881); test: co-IP; anti-IP3R1 antibody on 1 mg total lysate of 3T3-L1 cells before (day 0) and 7 days after adipogenic differentiation, 4°C overnight, Mag Sepharose Xtra beads, washed with TBST (50 mM Tris-HCl, 150 mM NaCl, 0.1% Tween-20, pH 7.4), eluted with 2% SDS; Western blot for GRP75 and VDAC1

| binding [1] | binding [2] | Substance |
| --- | --- | --- |
| binds | – | inositol 1,4,5-triphosphate receptor 1 (IP3R1) (from UniProt P11881 1-2749) |
| – | binds | glucose-regulated protein 75 (GRP75) (from UniProt P38647 47-679) |
